Assay [1] concerns the target PI3K. The assay can be described thus: PI3K luminescent kinase assay (Promega). Type of assay: biochemical. The conditions noted are these: read-out: Kinase inhibition IC50 PI3K. The text has this:
PI3K and mTOR kinase inhibition assay
The inhibitory activity of developed molecules against PI3K and mTOR was identified using luminescent kinase assay, and Lance Ultra assay from Promega, USA, respectively as per our earlier reported procedure ([38]).

Assay [2] concerns Saos-2. As to the kind of experiment: Cellular antiproliferation assay (CCK-8), Saos-2. The format is cell-based. As to conditions: Homo sapiens, Saos-2 cells, read-out: Cell growth inhibition IC50 Saos-2. Here is the method: The human osteosarcoma cancer cell lines MG-63, U2-OS, and Saos-2 were purchased from CBSIBCB of the Chinese Academy of Sciences (Shanghai, China)
Cellular antiproliferation assay using cell counting kit (CCK-8)
The CCK-8 assay was used in the current study to analyze the effect of compounds on cellular proliferation. The transfected cells were seeded in a 96-well plate, and to this CCK-8 (20 µl) was added. The enzyme microplate reader at 450 nm was used to record the absorbance. The inhibitory effect on cellular proliferation was obtained as per the given formula: Inhibitory activity (%) = (1 - Atest/Acontrol) × 100 %.

In assay [3] the test system is K562. The assay can be described thus: Cellular antiproliferation assay (CCK-8), K562. Type of assay: cell-based. As to conditions: Homo sapiens, K562 cells, read-out: Cell growth inhibition IC50 K562.
In assay [4] the test system is KU812. The assay can be described thus: Cellular antiproliferation assay (CCK-8), KU812. The format is cell-based. The conditions noted are these: Homo sapiens, KU812 cells, read-out: Cell growth inhibition IC50 KU812.

In general, IC50 refers to the midpoint of a concentration-inhibition curve.

For `Cc1ccc(NC(=O)c2ccc(CN3CCN(C)CC3)cc2)cc1Nc1nccc(-c2cccnc2)n1` [Imatinib, reference compound], the half-inhibitory concentration (IC50) in assay [1] turned out to be 312 nM; in assay [2] it was 332 nM; in assay [3] it was 410 nM; in assay [4], 165 nM.

The values above are taken from publication PMC9148403, “1,3,5-triazines inhibit osteosarcoma and avert lung metastasis in a patient-derived orthotopic xenograft mouse model with favorable pharmacokinetics” (Iranian Journal of Basic Medical Sciences, 2022).
